Test results published in patent publication US20230024652A1, “PHARMACEUTICAL COMPOSITION COMPRISING SMALL OCTOPUS-DERIVED PEPTIDE FOR TREATMENT OF INFLAMMATORY DISEASE” (NATIONAL MARINE BIODIVERSITY INSTITUTE OF KOREA, priority 2020, published 2023).
At least one peptide structure holds a part that was inferred or is arguable (an end, a ring closure or a residue). Where a SMILES comes first, the peptide text is derived from it.

What was measured:
Format in all cases: cell-based
RAW 264.7 macrophages [1] = assay: MTT cell viability / cytotoxicity and cyto-protection; conditions: LPS-activated macrophages (LPS 1 μg/mL), 62.5 to 500 μg/mL, 24 hours
Procedure: As macrophages, RAW 264.7 cells (American Type Culture Collection; ATCCUSA) were cultured in DMEM (Gibco/BRL, Canada) supplemented with 10% heat inactivated FBS and 1% antibiotics in 37° C. at 100% humidity under 5% CO2. […] After 24 hours, culture medium containing 3-(4,5-dimethylthiazol-2-yl)-2,5-diphenyltetrazolium bromide (MTT) (0.1 mg/mL) was added to each well. After 1 hour, culture medium was removed, and formazan crystals were dissolved in dimethyl sulfoxide (DMSO) and measured at 550 nm using a microplate reader. The concentration of NO in the culture medium was determined by Griess reagent (Abekura et al. Int Immunopharmacol 68:156, 2019). The cell viability of the control group untreated with Octominin was designated as 100%, which indicates no cytotoxicity

[2] = tested on: LPS-activated RAW 264.7 macrophages; assay: qPCR of pro-inflammatory cytokine and chemokine genes; conditions: 62.5, 125, 250 μg/mL pretreatment, 1 μg/mL LPS for 6 hours
[3] = tested on: LPS-activated RAW 264.7 macrophages; assay: qPCR of iNOS and COX2 mRNA; conditions: LPS-activated RAW 264.7 cells, dose-dependently
[4] = tested on: LPS-activated macrophages; assay: Western blot of NF-KB p50 and p65 in cytosolic and nuclear extracts
[5] = tested on: LPS-activated macrophages; assay: qPCR of TLR2 and TLR4 mRNA
[6] = tested on: LPS-activated RAW 264.7 macrophages; assay: Western blot of iNOS and COX2 protein; conditions: LPS-stimulated RAW 264.7 cells, 62.5 to 250 μg/mL
[7] = tested on: LPS-activated RAW 264.7 macrophages; assay: ELISA of PGE2 and pro-inflammatory cytokine secretion in culture supernatant; conditions: 62.5 to 250 μg/mL for 1 hour prior to LPS, 24 hours, compared with LPS-activated group
RAW 264.7 macrophages [8] = assay: NO concentration in culture medium by Griess reagent; conditions: 62.5 to 500 μg/mL

With `CC[C@H](C)[C@H](NC(=O)[C@H](C)NC(=O)[C@H](CCCCN)NC(=O)CNC(=O)[C@H](C)NC(=O)[C@H](Cc1c[nH]cn1)NC(=O)[C@@H](NC(=O)[C@H](C)NC(=O)CNC(=O)[C@H](CCCNC(=N)N)NC(=O)[C@@H](NC(=O)[C@H](CC(C)C)NC(=O)[C@H](Cc1c[nH]c2ccccc12)NC(=O)CN)[C@@H](C)CC)[C@@H](C)CC)C(=O)N[C@@H](Cc1c[nH]cn1)C(=O)NCC(=O)N[C@@H](CC(C)C)C(=O)N[C@H](C(=O)N[C@@H](Cc1c[nH]cn1)C(=O)N[C@@H](CCCNC(=N)N)C(=O)N[C@@H](CCCNC(=N)N)C(=O)N[C@@H](CCCNC(=N)N)C(=O)N[C@@H](Cc1c[nH]cn1)C(=O)O)[C@@H](C)CC` [Octominin] (H-GWLIRGAIHAGKAIHGLIHRRRH-OH) the cyto-protective effect (RAW 264.7 macrophages [1]) was “enhanced cyto-protective effect”, the “CCL3 (MIP-1α) relative mRNA expression” value [2] was “significantly and dose-dependently repressed” and the “CCL4 (MIP-1β) relative mRNA expression” value [2] was “significantly and dose-dependently repressed”. For the same compound, the “CCL-5 (RANTES) relative mRNA expression” value [2] was “significantly and dose-dependently repressed”, the “CXCL10 relative mRNA expression” value [2] was “significantly and dose-dependently repressed” and the “IL-1β relative mRNA expression” value [2] was “significantly and dose-dependently repressed”. For the same compound, the “IL-6 relative mRNA expression” value [2] was “significantly and dose-dependently repressed”, the “TNF-α relative mRNA expression” value [2] was “significantly and dose-dependently repressed” and the “COX2 mRNA expression level” value [3] was “significantly inhibited”. For the same compound, the “iNOS mRNA expression level” value [3] was “significantly inhibited”, the “p50 inhibition in nuclear protein extract” value ([4]; 62.5 μg/mL) was “did not show any significant p50 inhibition” and the “phosphorylated p50 level in cytosol” value ([4]; cytoplasmic protein extract) was “significantly downregulated”. For the same compound, the “phosphorylated p65 level in cytosol” value ([4]; cytoplasmic protein extract) was “significantly downregulated”, the “p50 expression level, nucleus translocation” value ([4]; nuclear protein extract) was “dose-dependently downregulated” and the “p65 expression level, nucleus translocation” value ([4]; nuclear protein extract) was “dose-dependently downregulated”. The “TLR2 gene expression level” value [5] was “downregulated”, the “TLR4 gene expression level” value [5] was “downregulated” and the COX2 protein level [6] was “significantly and dose-dependently inhibited”. The iNOS protein level [6] was “significantly and dose-dependently inhibited”, the “IL-1β level in culture supernatant” value [7] was “significantly inhibited” and the “IL-6 level in culture supernatant” value [7] was “significantly inhibited”. The “PGE2 level in culture supernatant” value [7] was “significantly inhibited”, the “TNF-α level in culture supernatant” value [7] was “significantly inhibited” and the NO production (RAW 264.7 macrophages [8]; RAW 264.7 macrophages without LPS, compared with control group) was “did not show any significant”. For the same compound, the NO production inhibition (RAW 264.7 macrophages [8]; LPS-activated macrophages (LPS 1 μg/mL), 24 hours) was “inhibited NO production in a dose-dependent manner”.
